Measurements reported in PubChem BioAssay AID1224828 (NIAID, 2016)

- Purpose: 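Knock-downs that increase or decrease LPS-induced p65 nuclear translocation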 (primary screen)
- Cells: mouse RAW264.7 G9 macrophage reporter cells (GFP-p65, Tnf promoter-mCherry)
- Reagents: siRNA pool against mouse genes, 100 nM
- Time to read-out: 2 days siRNA transfection, then 40 min LPS before fixation
- Treatment: LPS (Salmonella minnesota R595) at 10 ng/ml
- Read-out: 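Microscopy ratio of nuclear to perinuclear-ring GFP-p65 signal, scaled to the plate median; gene score is the average of two replicate robust z-scores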
- Direction: p65 translocation robust z-score: higher = more nuclear NF-kappaB p65 after LPS than the plate median; nuclear/cytoplasmic p65 ratio: higher = more nuclear NF-kappaB p65
- Call rule: 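Active if robust z is above 3.3 (negative regulators) or below -1.56, the Tlr4 control median (positive regulators); activity score 50 or more; control wells not called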
- Meaning of the calls: active = hit (p65 shift raised or lowered); inactive = no clear change
This is a random part of about 17,000 deposited reagents. Over the whole deposit, 762 (4.5%) are marked active. 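Active calls include both raised and lowered p65 entry, mostly lowered; wells with fewer than 50 cells lack a z-score.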 The raw values are shown without normalisation. Entries without a mark were called inactive. The numbers tell different reagents against one gene apart.

Yipf3 | p65 translocation robust z-score: -0.67; nuclear/cytoplasmic p65 ratio, rep 1: 1.45; nuclear/cytoplasmic p65 ratio, rep 2: 1.59; low cell count flag: enough cells to score
Pnrc1 | p65 translocation robust z-score: 0.75; nuclear/cytoplasmic p65 ratio, rep 1: 1.67; nuclear/cytoplasmic p65 ratio, rep 2: 1.44; low cell count flag: enough cells to score
Adcyap1r1 | p65 translocation robust z-score: 0.58; nuclear/cytoplasmic p65 ratio, rep 1: 1.62; nuclear/cytoplasmic p65 ratio, rep 2: 1.63; low cell count flag: enough cells to score
Il22 | p65 translocation robust z-score: -0.21; nuclear/cytoplasmic p65 ratio, rep 1: 1.41; nuclear/cytoplasmic p65 ratio, rep 2: 1.39; low cell count flag: enough cells to score
Arl8b | p65 translocation robust z-score: 2.05; nuclear/cytoplasmic p65 ratio, rep 1: 1.82; nuclear/cytoplasmic p65 ratio, rep 2: 1.89; low cell count flag: enough cells to score
Pex12 | p65 translocation robust z-score: -0.89; nuclear/cytoplasmic p65 ratio, rep 1: 1.27; nuclear/cytoplasmic p65 ratio, rep 2: 1.35; low cell count flag: enough cells to score
Rsbn1 | nuclear/cytoplasmic p65 ratio, rep 1: 1.22; nuclear/cytoplasmic p65 ratio, rep 2: 1.33; low cell count flag: fewer than 50 cells per well; well left out of scoring
Spns2 | p65 translocation robust z-score: -0.84; nuclear/cytoplasmic p65 ratio, rep 1: 1.37; nuclear/cytoplasmic p65 ratio, rep 2: 1.8; low cell count flag: enough cells to score
Pcdhb21 | nuclear/cytoplasmic p65 ratio, rep 1: 2.01; nuclear/cytoplasmic p65 ratio, rep 2: 1.35; low cell count flag: fewer than 50 cells per well; well left out of scoring
Cd4 | p65 translocation robust z-score: 0.5; nuclear/cytoplasmic p65 ratio, rep 1: 1.83; nuclear/cytoplasmic p65 ratio, rep 2: 1.4; low cell count flag: enough cells to score
Or10j27 | p65 translocation robust z-score: 0.02; nuclear/cytoplasmic p65 ratio, rep 1: 1.67; nuclear/cytoplasmic p65 ratio, rep 2: 1.37; low cell count flag: enough cells to score
Vamp2 | nuclear/cytoplasmic p65 ratio, rep 1: 1.26; nuclear/cytoplasmic p65 ratio, rep 2: 1.08; low cell count flag: fewer than 50 cells per well; well left out of scoring
Hmgcs2 | p65 translocation robust z-score: -0.24; nuclear/cytoplasmic p65 ratio, rep 1: 1.4; nuclear/cytoplasmic p65 ratio, rep 2: 1.35; low cell count flag: enough cells to score
Babam2 | p65 translocation robust z-score: -0.57; nuclear/cytoplasmic p65 ratio, rep 1: 1.54; nuclear/cytoplasmic p65 ratio, rep 2: 1.52; low cell count flag: enough cells to score
Scyl2 | p65 translocation robust z-score: 0.02; nuclear/cytoplasmic p65 ratio, rep 1: 1.72; nuclear/cytoplasmic p65 ratio, rep 2: 1.37; low cell count flag: enough cells to score
Pax3 | p65 translocation robust z-score: -0.19; nuclear/cytoplasmic p65 ratio, rep 1: 1.51; nuclear/cytoplasmic p65 ratio, rep 2: 1.31; low cell count flag: enough cells to score
Hnrnpul1 | p65 translocation robust z-score: 0.21; nuclear/cytoplasmic p65 ratio, rep 1: 1.48; nuclear/cytoplasmic p65 ratio, rep 2: 1.39; low cell count flag: enough cells to score
Agap1 | p65 translocation robust z-score: 2.62; nuclear/cytoplasmic p65 ratio, rep 1: 1.82; nuclear/cytoplasmic p65 ratio, rep 2: 2.39; low cell count flag: enough cells to score
Vmn2r89 #1 | nuclear/cytoplasmic p65 ratio, rep 1: 1.44; nuclear/cytoplasmic p65 ratio, rep 2: 1.29; low cell count flag: fewer than 50 cells per well; well left out of scoring
Vmn2r89 #2 | p65 translocation robust z-score: 0.83; nuclear/cytoplasmic p65 ratio, rep 1: 1.58; nuclear/cytoplasmic p65 ratio, rep 2: 1.32; low cell count flag: enough cells to score
Tlk1 | p65 translocation robust z-score: 2.28; nuclear/cytoplasmic p65 ratio, rep 1: 1.81; nuclear/cytoplasmic p65 ratio, rep 2: 1.67; low cell count flag: enough cells to score
